Measurements reported in PubChem BioAssay AID1259308 (NCATS, 2017)
Test: 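Knock-downs that increase output of a recombinant reporter protein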 (primary screen). Cells: human HEK293 embryonic kidney cells stably expressing firefly luciferase (HEK-CMV-Luc2-Hygro). Knock-down reagent: single siRNA against human genes, 0.8 pmol siRNA per well. Duration: 72 h. Measured: 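Reporter luminescence and viable-cell signal on separate replicate plates, given as percent of non-targeting control and median/MAD z-scores, plus per-cell luciferase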. Reading the numbers: total luciferase, z-score and total luciferase, % of control: higher = more reporter protein produced. Call rule: 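An siRNA counts as active if its total luciferase robust z-score exceeds 3; genes with two or more such siRNAs out of three were retested with fresh siRNAs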. Calls: active = raised luciferase; inactive = no rise.
The deposit covers about 59,000 reagents; below is a part drawn at random. About 1,510 of all reagents (2.6%) count as active. 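Calls use total luciferase alone and ignore viability, so some active siRNAs may act by altering cell number.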 Entries without a mark were called inactive. The numbers tell different reagents against one gene apart. Further read-outs or replicates are left out here.

With knock-down of ZBTB22 (GeneID 9278) #1, the record shows total luciferase, z-score 0.606; total luciferase, % of control 93.9.
Knock-down of ZBTB22 (GeneID 9278) #2 came out at: total luciferase, z-score 0.937; total luciferase, % of control 101.
Against ZBTB22 (GeneID 9278) #3, the values are total luciferase, z-score 0.452; total luciferase, % of control 90.9.
Knock-down of PDHA1 (GeneID 5160) #1 gave: total luciferase, z-score -0.738; total luciferase, % of control 67.2.
Silencing of PDHA1 (GeneID 5160) #2 came out at: total luciferase, z-score 1.63; total luciferase, % of control 114.
Silencing of PDHA1 (GeneID 5160) #3 gave: total luciferase, z-score 0.304; total luciferase, % of control 87.9.
Against CRBN (GeneID 51185) #1, the entry reads total luciferase, z-score 0.331; total luciferase, % of control 88.5.
Knock-down of CRBN (GeneID 51185) #2 resulted in: total luciferase, z-score -1.89; total luciferase, % of control 44.3.
After knock-down of CRBN (GeneID 51185) #3, the screen gave total luciferase, z-score -0.797; total luciferase, % of control 66.
Silencing of AGAP4 (GeneID 119016) #1 came out at: total luciferase, z-score 1.62; total luciferase, % of control 114.
AGAP4 (GeneID 119016) #2 showed total luciferase, z-score 0.342; total luciferase, % of control 88.7.
AGAP4 (GeneID 119016) #3 gave total luciferase, z-score 0.0485; total luciferase, % of control 82.9.
Against HMHB1 (GeneID 57824) #1 the deposit lists total luciferase, z-score -0.443; total luciferase, % of control 73.1.
HMHB1 (GeneID 57824) #2 showed total luciferase, z-score 0.935; total luciferase, % of control 100.
For HMHB1 (GeneID 57824) #3, the entry reads total luciferase, z-score 2.04; total luciferase, % of control 122.
Silencing of HBZ (GeneID 3050) #1 gave: total luciferase, z-score 1.4; total luciferase, % of control 110.
With knock-down of HBZ (GeneID 3050) #2 the results were total luciferase, z-score -0.104; total luciferase, % of control 79.8.
HBZ (GeneID 3050) #3 scored total luciferase, z-score 2.16; total luciferase, % of control 125.
For CAB39 (GeneID 51719) #1, the entry reads total luciferase, z-score -0.31; total luciferase, % of control 75.7.
Silencing of CAB39 (GeneID 51719) #2 gave: total luciferase, z-score -0.792; total luciferase, % of control 66.1.
Depletion of CAB39 (GeneID 51719) #3 came out at: total luciferase, z-score -0.226; total luciferase, % of control 77.4.
NDUFAF7 (GeneID 55471) #1 showed total luciferase, z-score 1.77; total luciferase, % of control 117.
NDUFAF7 (GeneID 55471) #2 showed total luciferase, z-score 2.6; total luciferase, % of control 134.
Against NDUFAF7 (GeneID 55471) #3 the deposit lists total luciferase, z-score -0.0533; total luciferase, % of control 80.8.
For FBXO43 (GeneID 286151) #1, the entry reads total luciferase, z-score 2.32; total luciferase, % of control 128.
Knock-down of FBXO43 (GeneID 286151) #2 resulted in: total luciferase, z-score 0.0455; total luciferase, % of control 82.8.
For FBXO43 (GeneID 286151) #3, the entry reads total luciferase, z-score 0.303; total luciferase, % of control 87.9.
For LAGE3 (GeneID 8270) #1, the values are total luciferase, z-score -1.09; total luciferase, % of control 60.3.
With knock-down of LAGE3 (GeneID 8270) #2, the screen gave total luciferase, z-score 0.197; total luciferase, % of control 85.8.
LAGE3 (GeneID 8270) #3 scored total luciferase, z-score -0.0715; total luciferase, % of control 80.5.
MEF2C (GeneID 4208) #1 scored total luciferase, z-score -0.244; total luciferase, % of control 77.
After knock-down of MEF2C (GeneID 4208) #2 the results were total luciferase, z-score -1.02; total luciferase, % of control 61.6.
MEF2C (GeneID 4208) #3 showed total luciferase, z-score -0.317; total luciferase, % of control 75.6.
Against CLC (GeneID 1178) #1 the deposit lists total luciferase, z-score 1.53; total luciferase, % of control 112.
With knock-down of CLC (GeneID 1178) #2, the record shows total luciferase, z-score 0.296; total luciferase, % of control 87.8.
CLC (GeneID 1178) #3 gave total luciferase, z-score 0.595; total luciferase, % of control 93.7.
LEMD3 (GeneID 23592) #1 gave total luciferase, z-score -1.03; total luciferase, % of control 61.5.
Knock-down of LEMD3 (GeneID 23592) #2 resulted in: total luciferase, z-score -1.07; total luciferase, % of control 60.6.
With knock-down of LEMD3 (GeneID 23592) #3, the screen gave total luciferase, z-score -0.684; total luciferase, % of control 68.3.
For CHST15 (GeneID 51363) #1 the deposit lists total luciferase, z-score -0.292; total luciferase, % of control 76.1.
Against CHST15 (GeneID 51363) #2, the values are total luciferase, z-score -1.38; total luciferase, % of control 54.5.
After knock-down of CHST15 (GeneID 51363) #3, the record shows total luciferase, z-score 0.105; total luciferase, % of control 84.

4 successive records from above, quoted:
HBZ (GeneID 3050) #3: total luciferase, z-score = 2.16; total luciferase, % of control = 125
CAB39 (GeneID 51719) #1: total luciferase, z-score = -0.31; total luciferase, % of control = 75.7
CAB39 (GeneID 51719) #2: total luciferase, z-score = -0.792; total luciferase, % of control = 66.1
CAB39 (GeneID 51719) #3: total luciferase, z-score = -0.226; total luciferase, % of control = 77.4
